Results reported in the supplement of paper PMC8007513.
Some of the results follow. Most values come without repeats; read them as rough.

system: Saccharomyces cerevisiae BY4743; assay: growth (OD600) with compound + IPBC relative to untreated control; higher = less growth inhibition; settings: compound concentration: 133 uM; IPBC concentration: 0.5 ug/ml; 20 h
Experimental: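 NMCCC compounds (133 uM) combined with IPBC (0.5 ug/ml) against Saccharomyces cerevisiae BY4743 in YPD, 96-well plates. Growth was read as OD600 at 20 h and expressed as % of the untreated control. Single pass.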

SMILES	growth [%]
CC(C)(C)c1ccc2oc(=O)n(C(=O)COc3ccc(F)cc3)c2c1 + CCCCNC(=O)OCC#CI [3-iodo-2-propynyl butylcarbamate (IPBC)]	97.7
CN(C1=CC=CC=C1)C(=O)\C2=C\C(=N/[S](=O)(=O)N2C)C3=CC=C(C)C=C3 + CCCCNC(=O)OCC#CI [3-iodo-2-propynyl butylcarbamate (IPBC)]	83.3
CCOC(=O)c1cc2n(n1)CC(C)(C(=O)NCCC(C)C)N(c1ccc(F)cc1)C2=O (centres undefined) + CCCCNC(=O)OCC#CI [3-iodo-2-propynyl butylcarbamate (IPBC)]	95.5
O=C(Cc1cccc(F)c1)NCC(=O)Nn1cnc2ccccc21 + CCCCNC(=O)OCC#CI [3-iodo-2-propynyl butylcarbamate (IPBC)]	93.3
Cc1ccc(S(C)(=O)=O)cc1C(=O)Nc1nc2cc(Cl)ccc2n1C + CCCCNC(=O)OCC#CI [3-iodo-2-propynyl butylcarbamate (IPBC)]	88.5
Cc1ccc(Nc2nc(COC(=O)c3nccnc3N)cs2)cc1 + CCCCNC(=O)OCC#CI [3-iodo-2-propynyl butylcarbamate (IPBC)]	102
Cc1cc(CS(=O)(=O)C(C)C(=O)Nc2ccc(Cl)cc2)on1 (centres undefined) + CCCCNC(=O)OCC#CI [3-iodo-2-propynyl butylcarbamate (IPBC)]	114
C[N]1N=CC(=C1C)N2\N=N/C3=C([N](C)N=C3)C2=O + CCCCNC(=O)OCC#CI [3-iodo-2-propynyl butylcarbamate (IPBC)]	108
CCc1ccc(NS(=O)(=O)c2ccc(C(=O)N(C)C)s2)cc1 + CCCCNC(=O)OCC#CI [3-iodo-2-propynyl butylcarbamate (IPBC)]	84.6
CCOc1ccc(CNC(=O)C(C)n2nc(C)c3ccccc32)cc1OC (centres undefined) + CCCCNC(=O)OCC#CI [3-iodo-2-propynyl butylcarbamate (IPBC)]	88.9
COc1cc2c(cc1OC)C1CC(=O)C(CC(C)C)CN1CC2 (centres undefined) + CCCCNC(=O)OCC#CI [3-iodo-2-propynyl butylcarbamate (IPBC)]	98.7
COc1cc(C(C)NC(=O)c2c(-c3ccccc3)noc2C)cc(OC)c1OC (centres undefined) + CCCCNC(=O)OCC#CI [3-iodo-2-propynyl butylcarbamate (IPBC)]	106
COC(=O)C1Cc2ccccc2CN1C(=O)CN(C)CCOc1ccccc1 (centres undefined) + CCCCNC(=O)OCC#CI [3-iodo-2-propynyl butylcarbamate (IPBC)]	105
CSc1nc2ccc(NC(=O)CSC(C)C(=O)Nc3cc(C)on3)cc2s1 (centres undefined) + CCCCNC(=O)OCC#CI [3-iodo-2-propynyl butylcarbamate (IPBC)]	111
Clc1nc(NCc2ccco2)c2[nH]cnc2n1 + CCCCNC(=O)OCC#CI [3-iodo-2-propynyl butylcarbamate (IPBC)]	93.5
Cc1cnc(NC(=O)CSc2nnc(CN3CCOCC3)n2C)s1 + CCCCNC(=O)OCC#CI [3-iodo-2-propynyl butylcarbamate (IPBC)]	92.5
Cc1ccc(N(CCC#N)C(=O)CSc2nnc3c(Cl)cc(Cl)cn23)cc1 + CCCCNC(=O)OCC#CI [3-iodo-2-propynyl butylcarbamate (IPBC)]	97
Cc1ccc(NC(=O)C2(N(C)C(=O)c3ccccn3)CCCCC2)cc1Br + CCCCNC(=O)OCC#CI [3-iodo-2-propynyl butylcarbamate (IPBC)]	103
O=S(=O)(NCc1ccccc1Cn1cccn1)c1ccccc1C(F)(F)F + CCCCNC(=O)OCC#CI [3-iodo-2-propynyl butylcarbamate (IPBC)]	96
COCCN(Cc1cccs1)S(=O)(=O)c1ccc(-c2cc(C(F)(F)F)on2)s1 + CCCCNC(=O)OCC#CI [3-iodo-2-propynyl butylcarbamate (IPBC)]	91.9

Single values from above:
Entry of CCOC(=O)c1cc2n(n1)CC(C)(C(=O)NCCC(C)C)N(c1ccc(F)cc1)C2=O (centres undefined) + CCCCNC(=O)OCC#CI [3-iodo-2-propynyl butylcarbamate (IPBC)] under growth [%]: 95.5
Entry of COc1cc(C(C)NC(=O)c2c(-c3ccccc3)noc2C)cc(OC)c1OC (centres undefined) + CCCCNC(=O)OCC#CI [3-iodo-2-propynyl butylcarbamate (IPBC)] under growth [%]: 106

The list continues.

SMILES	growth [%]
CCC(C)C1=CC=C(NC(=O)\C2=C\C3=CC=CC=C3C(=O)O2)C=C1 (centres undefined) + CCCCNC(=O)OCC#CI [3-iodo-2-propynyl butylcarbamate (IPBC)]	93.9
COC1=CC=C2N(C)\C=C(/C(=O)C2=C1)[S](=O)(=O)C3=CC=C(C)C=C3 + CCCCNC(=O)OCC#CI [3-iodo-2-propynyl butylcarbamate (IPBC)]	77.8
CCn1c(SCC(=O)Nc2cccc(C#N)c2)nnc1N1CCOCC1 + CCCCNC(=O)OCC#CI [3-iodo-2-propynyl butylcarbamate (IPBC)]	99.5
CCOC(=O)c1cnn2c1nc(O)c1ccccc12 + CCCCNC(=O)OCC#CI [3-iodo-2-propynyl butylcarbamate (IPBC)]	95.5
CCOC(=O)\C1=C(/C)NC(=O)N(CC(=O)NC2=CC=C(F)C=C2F)C1C3=CC=CC=C3 (centres undefined) + CCCCNC(=O)OCC#CI [3-iodo-2-propynyl butylcarbamate (IPBC)]	112
COc1ccc(CCNC(=O)C2CCC(=O)N2S(=O)(=O)c2ccc(C)cc2)cc1 (centres undefined) + CCCCNC(=O)OCC#CI [3-iodo-2-propynyl butylcarbamate (IPBC)]	89.2
CCC(=O)N1CCc2cc(CNS(=O)(=O)N(C)C)ccc21 + CCCCNC(=O)OCC#CI [3-iodo-2-propynyl butylcarbamate (IPBC)]	84.6
CSc1nsc(NC(=O)CN(C)Cc2ccc(Cl)s2)n1 + CCCCNC(=O)OCC#CI [3-iodo-2-propynyl butylcarbamate (IPBC)]	106
O=C\1CC(N\C(=N1)N2CCOCC2)C(=O)NC3=CC=CC=C3 (centres undefined) + CCCCNC(=O)OCC#CI [3-iodo-2-propynyl butylcarbamate (IPBC)]	96.5
CCn1c(SCC(=O)NCCc2cccs2)nc2cc(S(N)(=O)=O)ccc21 + CCCCNC(=O)OCC#CI [3-iodo-2-propynyl butylcarbamate (IPBC)]	98
O=C(Nc1ccccc1OC(F)F)c1ccc(NC2CC2)nc1 + CCCCNC(=O)OCC#CI [3-iodo-2-propynyl butylcarbamate (IPBC)]	91
CCC(=O)N1CCc2cc(Br)c(S(=O)(=O)N3CCN(CC)CC3)cc21 + CCCCNC(=O)OCC#CI [3-iodo-2-propynyl butylcarbamate (IPBC)]	80
CCOc1ccc(S(=O)(=O)N2CCOCC2)cc1NC(=O)CCc1ccsc1 + CCCCNC(=O)OCC#CI [3-iodo-2-propynyl butylcarbamate (IPBC)]	101
O=C(NCc1ccco1)C1(S(=O)(=O)c2ccccc2)CCCC1 + CCCCNC(=O)OCC#CI [3-iodo-2-propynyl butylcarbamate (IPBC)]	112
Cc1ccc(Cl)cc1N1CCN(CCNS(=O)(=O)c2csc(C(N)=O)c2)CC1 + CCCCNC(=O)OCC#CI [3-iodo-2-propynyl butylcarbamate (IPBC)]	97.8
Cc1ccc(S(=O)(=O)N(C)c2c(C)ccc(S(=O)(=O)N3CCCC3)c2C)cc1 + CCCCNC(=O)OCC#CI [3-iodo-2-propynyl butylcarbamate (IPBC)]	86.3
COc1ccc(Cl)cc1C(=O)NCCc1ccc(-n2cccn2)cc1 + CCCCNC(=O)OCC#CI [3-iodo-2-propynyl butylcarbamate (IPBC)]	84.7
COc1ccc(C)cc1NC(=O)Nc1nnc(N(CC(C)C)CC(C)C)s1 + CCCCNC(=O)OCC#CI [3-iodo-2-propynyl butylcarbamate (IPBC)]	108
COC(=O)c1ccc(C(=O)Nc2ccccc2C(=O)NCc2ccccc2)s1 + CCCCNC(=O)OCC#CI [3-iodo-2-propynyl butylcarbamate (IPBC)]	108
